Experimental data as given in patent US5082772A, “Process for preparing deacetylcephalosporin C” (priority 1988, dated 1992).
For some assays here: The name of at least one read-out is uncertain. For some assays here: At least one compound was matched to its structure with a doubt left.

Chains of the proteins cited; added tags and fusions are not shown. Lines headed by an entry give the natural chain unless they say otherwise; changes in a name come on top.
UniProt P18548: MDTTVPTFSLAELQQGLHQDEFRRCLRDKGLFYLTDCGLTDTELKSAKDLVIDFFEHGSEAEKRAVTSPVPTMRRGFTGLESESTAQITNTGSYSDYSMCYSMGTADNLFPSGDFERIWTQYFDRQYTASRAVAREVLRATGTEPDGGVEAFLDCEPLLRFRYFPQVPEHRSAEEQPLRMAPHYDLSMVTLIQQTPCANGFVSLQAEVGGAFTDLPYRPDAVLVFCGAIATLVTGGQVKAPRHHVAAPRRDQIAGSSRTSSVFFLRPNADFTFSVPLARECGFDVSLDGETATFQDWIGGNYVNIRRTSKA

Key:
[1] = target: DAOC synthase (Streptomyces clavuligerus, UniProt P18548); assay: Cofactor and metal ion requirement and stimulation of DAOC synthase activity; format: biochemical
Procedure: The enzymatic reaction was initiated by addition of penicillin N and was conducted for 15 min at 36° C. The synthase activity was determined by monitoring DAOC formation at 260 nm with HPLC as described by Dotzlaf, J. E., and Yeh, W. K (1987), J. Bacteriol 169, 1611-1618.

[2] = target: purified synthase (Streptomyces clavuligerus, UniProt P18548); assay: Stoichiometric analysis of conversion of penicillin N to DAOC; format: biochemical; conditions: under the reaction conditions; 60 min
Procedure: In the conversion of penicillin N to DAOC by the purified synthase provided herein, the molar ratio for DAOC formation/penicillin N disappearance over 60 min of the reaction remained in the range of 0.90-0.98 as shown in FIG. 5. The conversion of penicillin N to DAOC was 94% complete under the reaction conditions.

SMILES | requirement for expression of catalytic activity [1] | conversion of penicillin N to DAOC [2] [%]
O=C(O)CCC(=O)C(=O)O [α-ketoglutarate] | requires | –
CC1(C)S[C@@H]2[C@H](NC(=O)CCC[C@@H](N)C(=O)O)C(=O)N2[C@H]1C(=O)O [penicillin N] | – | 94
